Library screen at single concentrations

Sequences of proteins named here, by UniProt entry; tags and fusion partners are left off.
UniProt I6X8D2, whole entry: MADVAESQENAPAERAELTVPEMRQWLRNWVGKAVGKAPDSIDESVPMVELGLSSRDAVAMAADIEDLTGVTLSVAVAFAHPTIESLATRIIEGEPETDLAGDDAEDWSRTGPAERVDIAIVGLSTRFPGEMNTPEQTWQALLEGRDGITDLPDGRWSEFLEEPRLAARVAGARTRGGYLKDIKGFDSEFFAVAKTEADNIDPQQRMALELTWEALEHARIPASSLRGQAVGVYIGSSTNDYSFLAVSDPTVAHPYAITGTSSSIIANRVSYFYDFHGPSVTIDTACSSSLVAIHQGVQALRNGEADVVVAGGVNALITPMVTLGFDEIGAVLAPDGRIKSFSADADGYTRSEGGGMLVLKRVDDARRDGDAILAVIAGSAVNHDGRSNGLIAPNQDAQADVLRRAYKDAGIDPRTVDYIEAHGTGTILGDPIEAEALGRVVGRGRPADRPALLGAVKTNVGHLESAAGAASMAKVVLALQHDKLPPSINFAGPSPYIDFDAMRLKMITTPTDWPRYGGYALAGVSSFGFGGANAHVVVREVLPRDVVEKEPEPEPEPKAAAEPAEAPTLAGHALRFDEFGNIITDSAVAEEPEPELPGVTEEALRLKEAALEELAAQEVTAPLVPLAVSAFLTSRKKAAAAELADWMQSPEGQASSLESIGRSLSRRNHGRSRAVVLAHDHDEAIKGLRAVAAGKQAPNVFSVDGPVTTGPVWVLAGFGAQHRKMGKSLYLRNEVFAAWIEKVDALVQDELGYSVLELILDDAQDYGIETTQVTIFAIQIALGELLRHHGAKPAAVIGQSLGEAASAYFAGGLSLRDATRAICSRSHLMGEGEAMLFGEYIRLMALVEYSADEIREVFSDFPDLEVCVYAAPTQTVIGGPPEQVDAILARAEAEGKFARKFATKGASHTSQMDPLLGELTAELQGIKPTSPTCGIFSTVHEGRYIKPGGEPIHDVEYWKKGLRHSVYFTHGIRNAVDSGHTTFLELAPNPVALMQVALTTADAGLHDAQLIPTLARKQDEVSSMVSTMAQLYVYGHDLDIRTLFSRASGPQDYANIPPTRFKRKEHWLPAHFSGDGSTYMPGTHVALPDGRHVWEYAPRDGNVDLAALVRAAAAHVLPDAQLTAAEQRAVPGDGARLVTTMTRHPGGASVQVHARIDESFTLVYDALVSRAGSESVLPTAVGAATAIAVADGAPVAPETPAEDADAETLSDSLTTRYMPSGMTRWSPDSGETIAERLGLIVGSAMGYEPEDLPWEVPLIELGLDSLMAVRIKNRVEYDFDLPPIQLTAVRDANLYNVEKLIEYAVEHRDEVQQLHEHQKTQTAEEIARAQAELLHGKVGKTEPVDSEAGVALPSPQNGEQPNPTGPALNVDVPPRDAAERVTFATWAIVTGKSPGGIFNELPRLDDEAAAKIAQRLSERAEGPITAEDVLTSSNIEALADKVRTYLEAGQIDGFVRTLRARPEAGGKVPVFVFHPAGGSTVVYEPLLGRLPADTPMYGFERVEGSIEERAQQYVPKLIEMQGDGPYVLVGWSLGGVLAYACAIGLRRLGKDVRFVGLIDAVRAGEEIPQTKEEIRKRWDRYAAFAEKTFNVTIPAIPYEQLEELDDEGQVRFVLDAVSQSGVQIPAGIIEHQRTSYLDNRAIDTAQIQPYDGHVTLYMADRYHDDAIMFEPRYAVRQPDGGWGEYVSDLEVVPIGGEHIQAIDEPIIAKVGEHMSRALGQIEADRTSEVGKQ

Measurements from “University of Dundee, Small-Polar-MMV Screening Library” (2021), ChEMBL document CHEMBL3988442.

The filed quantity is “Percent Effect” (%). How 0% and 100% were set is not recorded. Most values in the screen are low, and negative values occur. Compounds were drawn at random from those tested, without regard to their results.

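Enzyme assay of the thioesterase domain of polyketide synthase 13; the read-out is not stated. Target: Polyketide synthase Pks13, Mycobacterium tuberculosis (UniProt I6X8D2). Concentration: 30 µM. Higher reads as stronger inhibition (inferred from which compounds were picked for retests). About 67,000 compounds were tested under these conditions; 0.46% (about 300) showed 50% or more at least once.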

Compound: CCOC(=O)c1cnn(C2CCN(C(=O)CC3C=CCC3)CC2)c1N (stereo not given)
percent effect: -18.01

Compound: NC(=O)c1cnn2c1NCC(CNCCc1ccco1)C2 (stereo not given)
percent effect: -3.484

Compound: CC(C)n1ccc(-c2cc(C(=O)N3CCN(C)CC3)c3ccccn23)n1
percent effect: 4.032

Compound: COc1cn(CC(=O)N2CCN(c3ccc(Cl)cc3)CC2)c(C)cc1=O
percent effect: 4.308

Compound: CC(C)CN1CCC(C(=O)NCCNC(=O)c2ccco2)CC1
percent effect: -11.46

Compound: c1nnc(Nc2cncc(C3CCCN3CC3CC3)n2)s1 (stereo not given)
percent effect: 18.73

Compound: CN(C)c1nc2c(c(N(C)Cc3n[nH]c4c3CCCC4)n1)CCNCC2
percent effect: -2.048

Compound: O=C(CCn1cc(Cl)cn1)N1CCC2(CC1)OCCCC2O (stereo not given)
percent effect: 32.39

Compound: CCc1cc(N2CCC(NCCc3nc(C)c(C)s3)CC2)nc(C)n1
percent effect: -23.69

Compound: Cc1noc(CN(C)C2CCCN(Cc3noc(C4CC4)n3)C2)n1 (stereo not given)
percent effect: 0.1188

Compound: O=C1CCN(C(=O)NCC(c2ccccc2)c2ccccc2)CCN1
percent effect: -27.89

Compound: O=C(c1cnccn1)N1CCOC2(CCN(Cc3ccsc3)CC2)C1
percent effect: -8.475

Compound: O=C(c1ccnnc1)N1CCc2onc(Cn3cccn3)c2C1
percent effect: 4.092

Compound: C1CN(CC2CCOCC2)Cc2c(COCC3CC3)nnn2C1
percent effect: -38.57

Compound: CC(=O)N1CCN(S(=O)(=O)c2ccc(C)c(F)c2)CC1
percent effect: -40.16

Compound: c1ccc(-c2nc(CN3CCOC(Cn4cncn4)C3)cs2)cc1 (stereo not given)
percent effect: -12.18

Compound: O=C([C@H]1CCCO1)N1CC[C@H](O)[C@@H]1Cc1cccnc1
percent effect: -16.65

Compound: Cc1nnc(N2CCOC(C)(C(=O)N(C)C)C2)c2ccccc12 (stereo not given)
percent effect: -2.911

Compound: NC(=O)c1c(-c2ccc(Cl)cc2Cl)csc1NC(=O)CCC(=O)O
percent effect: -5.036

Compound: CN1CCC(c2n[nH]c(=O)n2CC2CCCCC2)CC1
percent effect: -31.7

Compound: Cn1nc(CN2CCOCC2)c2c1CN(Cc1ccsc1)C2
percent effect: -8.867

Compound: COCc1cccc(NC(C(N)=O)c2ccc(Br)cc2)c1 (stereo not given)
percent effect: -41.82

Compound: O=C(NCCN1CCCCCC1=O)c1n[nH]c(=O)c2ccccc12
percent effect: -7.449

Compound: Cc1cc(N(C)C)nc(C2COCCN2Cc2csc(C)n2)n1 (stereo not given)
percent effect: -14.02

Compound: Cc1noc(-c2ccnc(N3CCCN(C4CCOCC4)CC3)c2)n1
percent effect: -26.56

Compound: CCN(C)S(=O)(=O)NCC1(c2cccc(Br)c2)CC1
percent effect: -15.81

Compound: CC(C)c1n[nH]c(C2CN(C(=O)C3=COCC3)CCO2)n1 (stereo not given)
percent effect: -4.806

Compound: Cc1nc(CN2CCCn3cnc(COCC4CC4)c3C2)cs1
percent effect: -36.31

Compound: O=C(C1CCCO1)N1CCC(n2cc(-c3ccc(F)cc3)nn2)CC1 (stereo not given)
percent effect: 4.722

Compound: CC(=O)c1cccc(-c2c[nH]c(C)n2)c1
percent effect: -5.849

Compound: O=C(CCCc1cn[nH]c1)N1C[C@H](CO)C[C@H](CN2CCCC2)C1
percent effect: -25.32

Compound: O=C(O)c1cncc(Cc2cccc(F)c2)c1
percent effect: -4.528

Compound: CCSc1ncc(CN2CCN(c3ccc(C#N)cc3)C(=O)C2)cn1
percent effect: 4.963

Compound: CCn1nc(C)c(NC(=O)CN2CCC(c3ccccc3Cl)C2)c1C (stereo not given)
percent effect: -10.09

Compound: Cn1ccc(CNC(=O)N2CCC(C3(C)OCCO3)CC2)c1
percent effect: -10.91

Compound: CC(C)c1nnc2n1CCN(Cc1csc(-c3cnn(C)c3)n1)C2
percent effect: -12.67

Compound: CC(C)N1CCN(C)C2(CCN(C(=O)c3ccnnc3)CC2)C1=O
percent effect: -40.9

Compound: Cc1nc(NCCSc2ccccn2)c2c(C)noc2n1
percent effect: -8.936

Compound: COc1ccccc1OC1CN(C(=O)CN(C)Cc2ccncc2)C1
percent effect: -7.077

Compound: N#Cc1cccc(C(=O)N2CCc3c(COCC4CC4)cncc3C2)c1
percent effect: -55.27

Compound: Cc1noc(C(C)Nc2ccc(N3CCOCC3)cc2C)n1 (stereo not given)
percent effect: 0.5482

Compound: Cc1n[nH]cc1CNC(C(=O)N1CCCCC1)c1ccccc1 (stereo not given)
percent effect: 3.357

Compound: c1csc(CN2CCn3c(Cn4cncn4)cnc3C2)n1
percent effect: -38.39

Compound: COCCNc1ccc(CNC(=O)C2COc3ccccc32)cc1 (stereo not given)
percent effect: 14.01

Compound: O=C(c1ccn(-c2ccccc2Cl)n1)N1CCCSCC1
percent effect: -8.707

Compound: CCN1CCC2(CC1)c1nc[nH]c1CCN2S(C)(=O)=O
percent effect: -10.59

Compound: O=C(NCCc1nc(-c2cccnc2)no1)c1ccc(C2CCCO2)s1 (stereo not given)
percent effect: 12.06

Compound: COc1ccc(CN(C)[C@@H]2CN(C(=O)c3cncs3)C[C@H]2O)cc1
percent effect: -3.104

Compound: CC(C)CN1Cc2nc(N3CCCC3)ncc2C1=O
percent effect: -1.409

Compound: COCc1nnc(C(=O)N2CCC(N3CCCCC3)CC2)o1
percent effect: -11.35

Compound: COc1ccccc1N1CCC(CNCc2ccc(C#N)cc2)C1 (stereo not given)
percent effect: -12.23

Compound: COc1ccc(/C=C/CN2CCC3(CC2)CN(C)C(=O)O3)cc1
percent effect: 32.44

Compound: Cn1ccnc1COc1ccc(NC(=O)CCC2CCCO2)cc1 (stereo not given)
percent effect: -15.13

Compound: O=C(Nc1ccccc1N1CCOC1=O)N1CCc2sccc2C1
percent effect: -34.01

Compound: CC(NC(=O)CCC1CCCCC1)c1nnc2n1CCC2 (stereo not given)
percent effect: -15.3